These results are taken from PubChem BioAssay AID1347422 (Sanford-Burnham Center for Chemical Genomics, 2020).

Chains of the proteins cited; added tags and fusions are not shown. Lines headed by an entry give the natural chain unless they say otherwise; changes in a name come on top.
UniProt O00391: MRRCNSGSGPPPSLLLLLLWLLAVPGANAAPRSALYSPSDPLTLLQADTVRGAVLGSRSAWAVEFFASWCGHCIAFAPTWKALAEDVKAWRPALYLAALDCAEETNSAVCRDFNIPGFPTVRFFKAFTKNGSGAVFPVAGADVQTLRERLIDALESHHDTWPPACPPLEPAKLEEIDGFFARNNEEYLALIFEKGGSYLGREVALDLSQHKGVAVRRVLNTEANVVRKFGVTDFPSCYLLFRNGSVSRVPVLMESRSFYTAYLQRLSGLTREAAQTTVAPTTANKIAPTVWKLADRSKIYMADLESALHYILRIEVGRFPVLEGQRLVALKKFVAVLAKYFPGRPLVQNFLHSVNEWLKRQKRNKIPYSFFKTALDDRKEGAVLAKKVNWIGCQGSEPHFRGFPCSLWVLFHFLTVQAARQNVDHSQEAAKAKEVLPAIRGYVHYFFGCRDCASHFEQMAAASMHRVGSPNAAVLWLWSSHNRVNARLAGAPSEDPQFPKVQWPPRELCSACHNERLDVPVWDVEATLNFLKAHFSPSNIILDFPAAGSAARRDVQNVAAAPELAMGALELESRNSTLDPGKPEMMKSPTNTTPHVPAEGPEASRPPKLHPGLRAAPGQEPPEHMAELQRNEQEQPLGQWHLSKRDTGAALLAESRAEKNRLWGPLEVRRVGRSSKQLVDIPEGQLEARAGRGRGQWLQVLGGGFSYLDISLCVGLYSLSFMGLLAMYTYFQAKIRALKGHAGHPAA

Molecules are shown by their SMILES. The full ranking holds about 1,000 compounds; the median of “thermal shift dTm” is about 0.19, and the highest 2% start at about 1.7. This is one part of the list. Activity calls are given as the source filed them.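 How the source made its calls: active means mean rise in melting temperature of at least 1 degC over same-plate control wells; inactive means below that, where a call was filed.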

For this test, the target named is Sulfhydryl oxidase 1 (Homo sapiens) (UniProt O00391). Description: ligand-induced melting shift of human QSOX1 – biophysical, protein thermal shift, single concentration, QSOX1 inhibitor project, confirmation (AID 1347422).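 Further: dTm is compound Tm minus mean Tm of DMSO-only wells on that plate.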 Particulars: recombinant hQSOX1 thermal shift, Sypro Orange, at 25 µM, stronger effect = higher value.
In the case of `NC(=O)c1ccnc(-c2ccc(Cl)s2)c1`, the thermal shift dTm is 0.04 °C.

As to `CC(=O)N1CCN(Cc2cc(C(C)(C)C)c(O)c(C(C)(C)C)c2)CC1`, the thermal shift dTm is active: 1.26 °C. Next, `O=C(NCC1Cc2cccc(-c3cnccn3)c2O1)c1cncs1` (centres undefined): 0.09 °C; `COc1ccc(OCC(=O)Nc2cc(Cl)ccc2O)cc1`: 0.02 °C.

Turning to `Cc1ccc(Nc2nc(C3CC(CC(C)C)C(=O)O3)cs2)cc1` (centres undefined), the thermal shift dTm was inactive: -0.09 °C. Turning to `O=C(CSC1=NCCS1)Nc1ccc2ccccc2c1`, the thermal shift dTm turned out to be 0.14 °C. The same measure for `O=C(/C=C/c1ccc(Cl)cc1)Nc1cccnc1`: active: 2.02 °C; for `O=C1OC(c2ccccc2)OC(=O)C1=Cc1ccc(-c2cccc(C(F)(F)F)c2)o1` (centres undefined): active: 1.07 °C. As to `CCNS(=O)(=O)c1ccc(NC(=O)Nc2cc(C)ccc2OC)cc1`, the thermal shift dTm is active: 1.17 °C. The same measure for `Cc1cc(Nc2ccc(S(=O)(=O)NCc3ccccc3)cc2)ncn1`: 0.04 °C; for `COCCCNC(=O)c1ccc(NC(=O)c2ccc(OC)cc2)cc1`: 0.38 °C. Next, `O=C(Nc1ccc2c(c1)OCO2)c1sc2cccc(F)c2c1Cl`: 0.29 °C; `Cc1ncc(CNc2ccc(-c3nc4ccccc4[nH]3)cc2)cn1`: 0.14 °C; `O=C(c1ccncc1)c1ccc(NC(=O)c2cccs2)cc1`: 0.05 °C. The same measure for `Cc1ccc(NS(=O)(=O)c2cc(C(=O)Nc3ccc4c(c3)OCO4)ccc2C)cc1`: 0.66 °C.

Regarding `CCCOC(=O)c1c(NC(=O)C2CCCCC2C(=O)O)sc(C)c1-c1ccc(F)cc1` (centres undefined), the thermal shift dTm came out at 0.06 °C. The same measure for `COc1ccc(C(=O)Oc2ccccc2Cl)cc1Br`: 0.06 °C; for `CCc1cccc2c1N=C/C2=C\c1c(O)n(Cc2ccco2)c(=O)[nH]c1=O`: 0.91 °C. Consider `CC(C)c1ccc(NC(=S)Nc2ccccc2Oc2ccccc2)cc1`, for which the thermal shift dTm came out at 0.11 °C.

As to `O=C(Nc1ccccc1)OCC1COc2ccccc2O1` (centres undefined), the thermal shift dTm is inactive: -0.05 °C. For `Cc1ccc(Nc2nc(-c3sc(C)nc3C)cs2)nc1`, the thermal shift dTm is 0.16 °C. Next, `Cc1cccc(OCC(=O)Nc2cccc(NC(=O)c3ccco3)c2)c1C`: 0.85 °C; `COc1ccc(NC(=O)CSc2nnc(-c3ccc4ccccc4n3)s2)cc1`: inactive: -0.09 °C.

On to `CC(=O)Nc1cccc(NC(=O)c2cc(Br)cs2)c1`, for which the thermal shift dTm amounted to 0.83 °C. Take `Cc1ccc(-c2noc(CNC(=O)c3ccc4ccccc4c3)n2)cc1`: the thermal shift dTm was inactive: -0.08 °C. The same measure for `CC(C)N1CC(C(=O)Nc2ccc(C(=O)Nc3ccc(Cl)cn3)cc2)CC1=O` (centres undefined): 0.14 °C; for `O=C(Nc1ccc2[nH]ncc2c1)c1cccc(F)c1`: active: 1.63 °C. With `CN(C)c1nc(N/N=C/c2cc(Br)c(O)c(Br)c2O)nc(Nc2ccc(F)cc2)n1`, the thermal shift dTm stood at 0.1 °C.

For `C=CCN1C(=O)C(Cc2ccc(F)cc2)S/C1=N\N=C\c1ccccc1` (centres undefined), the thermal shift dTm came to 0.01 °C. Next, `O=C(c1cccc(NS(=O)(=O)c2ccccc2)c1)N1CCc2ccccc21`: 0.23 °C; `CCOc1c(Cl)cc(-c2nc3ccc(Br)cc3c(=O)o2)cc1Cl`: active: 1.55 °C. On to `OCc1cn(-c2ccccc2)nc1-c1ccc2ccccc2c1`, for which the thermal shift dTm is inactive: -0.09 °C. The same measure for `Cc1cc(-c2noc(COc3ccccc3)n2)c2ccccc2n1`: 0.15 °C; for `Cc1nc(NC(=O)c2ccc(Br)s2)sc1C`: 0.27 °C.

Consider `CC1CN(CC(=O)NCc2ccc(-n3cccn3)cc2)Cc2cc(Cl)ccc2O1` (centres undefined), for which the thermal shift dTm is 0.09 °C. `Cc1oc(-c2ccccc2NS(C)(=O)=O)nc1CN(C)Cc1ccc(OC(F)F)cc1`: the thermal shift dTm stood at 0.18 °C. The same measure for `COc1cc(/C=C2/SC(N)=NC2=O)ccc1OCc1ccc(I)cc1`: 0.05 °C; for `CC(=O)c1ccc(NC(=O)Nc2ccc(Cl)cn2)cc1`: 0.1 °C; for `Cc1ccc(C2(c3ccc(C)cc3)CC2C(=O)Nc2ccccc2)cc1` (centres undefined): 0.05 °C. The same measure for `COc1cc(NC(=O)CSc2ccc(Cl)cc2)ccc1NC(=O)c1ccco1`: active: 1.17 °C; for `NS(=O)(=O)c1ccc(C(=O)OCc2cccc(Cl)c2Cl)cc1`: 0.16 °C.

On to `CCOC(=O)c1sc(NC(=O)CSc2nc(SC)ns2)nc1C`, for which the thermal shift dTm was determined as 0.19 °C. Turning to `COc1ccc(C)cc1NS(=O)(=O)c1ccc(NC(=O)c2ccc(C)cc2)cc1`, the thermal shift dTm is inactive: -0.08 °C. The same measure for `FC(F)(F)c1ccccc1NC(=S)Nc1ccc(OCc2ccccc2)cc1`: 0.68 °C. Consider `Cn1c(=O)c(C(=O)Nc2cccc(O)c2)c(O)c2ccccc21`, for which the thermal shift dTm was found to be 0.05 °C. For the compound `CCCNC(=O)c1ccc(-c2cccc(-c3ccn[nH]3)c2)nc1`, the thermal shift dTm is inactive: 0 °C. The same measure for `O=C(CNC(=O)c1ccc(Cl)cc1)OCc1ccc(Br)cc1`: 0.63 °C; for `Cc1ccc(S(=O)(=O)Nc2ccc(-c3cn4ccc(C)cc4n3)cc2)cc1`: 0.71 °C; for `CCC(=S)/C=C1\Sc2ccc(Cl)cc2N1CCCS(=O)(=O)O`: 0.95 °C. Next, `C/C(CCc1ccc2c(c1)OCO2)=N\N=C(/N)SC1CC(=O)N(c2ccc(Cl)cc2)C1=O` (centres undefined): inactive: -0.09 °C; `O=c1[nH]c(SCCOc2cccc3ccccc23)nc2ccccc12`: 0.11 °C; `O=C(C#Cc1ccccc1)Nc1ccc2c(c1)OCCO2`: 0.24 °C.

In the case of `Cc1ccc(-c2cn(S(=O)(=O)c3cccc4nsnc34)nc2N)cc1`, the thermal shift dTm amounted to 0.1 °C. The same measure for `Cc1ccc(-c2noc(CNC(=O)c3ccc(C(C)(C)C)cc3)n2)cc1`: inactive: -0.13 °C; for `O=C(O)CCCNC(=O)/C(=C\c1ccc(F)cc1)NC(=O)c1ccco1`: inactive: -0.09 °C; for `COc1ccc(NC(=O)Nc2ccc(C)cc2)c(OC)c1`: 0.2 °C.

With `COc1ccc2c(CCNC(=O)c3cccc(C)c3)c[nH]c2c1`, the thermal shift dTm is 0.06 °C. Turning to `O=C(Nc1ccc(Cl)cc1C(=O)O)c1ccccc1`, the thermal shift dTm stood at 0.52 °C.

On to `Cc1ccc(C)c(-c2csc(NC(=O)c3ccncc3)c2C#N)c1`, for which the thermal shift dTm turned out to be 0.88 °C. The same measure for `O=C(Nc1ncc(Cc2ccccc2)s1)c1cccc(-n2cnnn2)c1`: 0.18 °C. Next, `CCOc1cccc(/C=C2\N=C(SCc3ccccc3)SC2=O)c1OC`: 0.4 °C; `O=C(Cc1cccs1)Nc1cccc(NC(=O)c2ccco2)c1`: 0.23 °C. The same measure for `N#Cc1ccccc1COc1ccc(C(=S)N2CCCC2)cc1Cl`: 0.24 °C. With `Cc1ccc2nc(-c3ccc(NC(=O)Cc4ccc(F)cc4)cc3)sc2c1`, the thermal shift dTm worked out at 0.06 °C. With `CCC(Oc1ccccc1)C(=O)NC(c1ccccc1)c1ccc(OC)cc1` (centres undefined), the thermal shift dTm came out at 0.11 °C. Next, `COc1ccc(NC(=O)Nc2ccc(OC(F)(F)F)cc2)c(OC)c1`: 0.8 °C; `Cc1ccc(NC(=O)NCc2nc(-c3ccccc3Cl)no2)cc1`: 0.2 °C. `O=c1c2c3nc4ccccc4nc3n(C3CCCC3)c2ncn1Cc1ccco1`: the thermal shift dTm was found to be 0.71 °C. Regarding `O=C(CC1SC(=O)NC1=O)Nc1ccccc1NC(=O)CC1SC(=O)NC1=O` (centres undefined), the thermal shift dTm amounted to 0.86 °C.
